# Reference: patent US20040157930A1, “Histone deacetylase enzyme-inhibiting derivatives of hydroxamic acid as new cytokine synthesis-inhibiting anti-inflammatory drugs” (priority 2001, published 2004)
# Assays:
# IL-1β = assay: LPS-stimulated PBMC cytokine production in vitro: IL-1β (ECL); assay type: cell-based; details: Homo sapiens, LPS 10 ng/ml, 24 h
# Procedure: Samples of peripheral blood or buffy coats from healthy volunteers were used. […] At the end of the treatment the pro-inflammatory cytokines TNFα, IL-1β were measured by means of an electrochemiluminescence assay (ECL) using specific commercial antibodies.
# The effect of the various doses of SAHA and TSA was measured as the percentage inhibition of production of the cytokine in question compared with untreated control cells. The concentration able to induce 50% inhibition of cell growth (IC50) was determined by linear regression.
# IFNγ = assay: LPS-stimulated PBMC cytokine production in vitro: IFNγ (ELISA); details: Homo sapiens, 24 h, read-out: IFNγ IC50
structure (smiles),measurement,setting,value
"O=C(CCCCCCC(=O)Nc1ccccc1)NO [SAHA, suberoylanilide hydroxamic acid]",IC50,IL-1β,100 nM
same,IC50,IFNγ,50 nM
